This is one part of the list. Some results for these compounds are left out of this collection, so the calls shown say nothing about other tests.
Experiment: restorers of sdo1-deficient yeast growth – S. cerevisiae, bone marrow failure model, primary screen (AID 817);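 note: z-score against mean and SD of all compound wells on the same plate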
Settings: S. cerevisiae sdo1-depleted JHY4D growth rescue, OD600; measured here: growth rescue at 24 h; at 10 µM; stronger effect = higher value; pdr5 snq2 efflux-pump mutant strain

Structure (SMILES)	z-score
CN(C)c1cccc(C(=O)NCC2(N(C)C)CCCCC2)c1	-0.84
O=C(OC1CN2CCC1CC2)C(CO)(c1ccccc1)c1ccccc1 (stereo not given)	-0.27
CCN1CCCC(OC(=O)C2(O)c3ccccc3C=Cc3ccccc32)C1 (stereo not given)	0.82
CN(C)C1CCCC1OC(=O)C(O)(c1ccccc1)c1ccccc1 (stereo not given)	-0.61
CC(C)N1C(=O)CC2(CCN(CCOC(=O)C(O)(c3ccccc3)c3ccccc3)CC2)C1=O	0.3

Reference: PubChem BioAssay AID817 (Emory University Molecular Libraries Screening Center, 2007)
